From article PMC8369990 come the findings set out here.

Amino acid sequences for entries named in this document (tags omitted).
UniProt P08515, whole entry: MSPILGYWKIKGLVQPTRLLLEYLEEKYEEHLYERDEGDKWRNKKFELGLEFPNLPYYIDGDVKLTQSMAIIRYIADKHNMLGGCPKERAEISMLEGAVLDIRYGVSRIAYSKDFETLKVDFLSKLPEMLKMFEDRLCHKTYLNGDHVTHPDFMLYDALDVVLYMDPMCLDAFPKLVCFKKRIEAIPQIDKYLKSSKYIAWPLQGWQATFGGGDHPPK

Construct, isoform or probe ends are uncertain for at least one entry. For some of these results: A negative result means that nothing was seen under these conditions.

Common to all, as to experiment: EMSA
In general terms: Mobility shift assays separate free from complexed probe on a gel.

For data set [1], the target named is GST (UniProt P08515). The note with it: GST alone; LightShift Chemiluminescent EMSA kit, 5% native PAGE; pH and temperature not stated (as in Tan et al., 2019); recombinant protein; protein details: GST; label: biotin.
Data set [2] concerns GST-HcMYB2 (Hedychium coronarium). As to conditions: LightShift Chemiluminescent EMSA kit, 5% native PAGE, pH and temperature not stated (as in Tan et al., 2019), recombinant protein, protein details: N-terminal GST (pGEX-4T-1), label: biotin.
For data set [3], the system named is GST-HcMYB1 (Hedychium coronarium). The note with it: 100-fold unlabeled probe reduced and 500-fold abolished the complex; LightShift Chemiluminescent EMSA kit, 5% native PAGE; pH and temperature not stated (as in Tan et al., 2019); recombinant protein; protein details: N-terminal GST (pGEX-4T-1); label: biotin.

Regarding “CAAGCGACCACCAACGGTTGAGATCAATTTTTTCTTGATCTAACGGTTC (double strand) [proHcBSMT2 probe]”, the binding result in data set [1] is given as “no binding”; in data set [2] (100-fold unlabeled probe reduced and 500-fold abolished the complex), “binds”; in data set [3], “binds”.
On to “TTCAACCAGATCAACCAATATATAACTCCTTAGCCCCTACCTAACCAGAC (double strand) [proHcTPS5 probe]”, for which the binding result in data set [2] is listed as “binds”.
